# PubChem BioAssay AID328 (DTP/NCI, 2004)
# The list does not hold the whole screen: it gathers tests that were run many times, whatever their T/C, doses with no T/C, and many T/C values between a quarter and a half above the control. Other doses and runs of a compound stand elsewhere. T/C is the treated group as % of the vehicle group. Some doses have a count of surviving animals in place of a T/C: the source holds a T/C of zero for them, seemingly a mark for toxic or unscored doses. Some doses without a T/C left all or most animals alive at the check, yet need not have been tolerated: survival well below the control is almost never listed, so the zero probably covers shortened survival too. Survivors were counted at the toxicity check, usually on the fifth day, unless a day is given; later deaths do not show. Schedules are NCI's codes, taken here to give the interval after Q, in days (D) or hours (H), and the number of doses after X. For survival time, this PubChem deposit counts one and a half times the control or more as active, and values a quarter to a half above the control carry no call in these data; other NCI protocols may use other cut-offs. Some T/C values are followed by the survivors on the day toxicity was checked, most often the fifth; without a count, all were alive then. Some doses were run more than once; the values are given in rising order.
# Test system: BDF1 mice, P388 leukemia ip, median survival T/C
# Test: NCI In Vivo Anticancer Drug Screen. Data for tumor model P388 Leukemia (intraperitoneal) in B6D2F1 (BDF1) mice
# Settings: T/C endpoint: median survival time, higher T/C = longer survival
# How it was run: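 In tumour-bearing mice, survival after compound treatment is set against the vehicle group and given as a quotient.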
# [1] = dose: 100.0 mg/kg/injection, schedule: Q01DX009 (ip), vehicle: saline with Tween-80
# [2] = dose: 200.0 mg/kg/injection, schedule: Q01DX009 (ip), vehicle: saline with Tween-80
# [3] = dose: 25.0 mg/kg/injection, schedule: Q01DX009 (ip), vehicle: saline
smiles,measurement,setting,value
O=[N+]([O-])C(CO)(CO)CC(F)(F)F,survivor count,"dose: 1.56 mg/kg/injection, schedule: Q04DX003 (ip), vehicle: saline",6 of 6
CN(C)CC/C=C1\c2ccccc2C(C)(C)c2ccc(Cl)cc21,T/C,"dose: 22.0 mg/kg/injection, schedule: Q04DX003 (ip), vehicle: saline with Tween-80",140 % of control
same,T/C,"dose: 25.0 mg/kg/injection, schedule: Q01DX009 (ip), vehicle: Klucel (hydroxypropylcellulose) (HPC)",138 % of control
CCCCCCCC(=O)NC1CC(O[C@H]2C[C@](O)(C(=O)CO)Cc3c(O)c4c(c(O)c32)C(=O)c2c(OC)cccc2C4=O)OC(C)C1O (some centres undefined),T/C,"dose: 1.56 mg/kg/injection, schedule: Q01DX009 (ip), vehicle: water",127 % of control
same,T/C,"dose: 3.13 mg/kg/injection, schedule: Q01DX009 (ip), vehicle: water",136 % of control
same,T/C,"dose: 150.0 mg/kg/injection, schedule: Q04DX003 (ip), vehicle: water",142 % of control
same,T/C,"dose: 300.0 mg/kg/injection, schedule: Q04DX003 (ip), vehicle: water",135 [5 of 6 alive] and 136 % of control
same,T/C,"dose: 400.0 mg/kg/injection, schedule: Q04DX003 (ip), vehicle: water",131 % of control
CC1(C)c2c3ccccc3cc3cccc(c23)[S+]1c1ccccc1 (centres undefined),T/C,"dose: 5.0 mg/kg/injection, schedule: Q01DX009 (ip), vehicle: saline with Tween-80",125 % of control
same,survivor count,"dose: 20.0 mg/kg/injection, schedule: Q01DX009 (ip), vehicle: saline with Tween-80",3 of 6
CCOC(=O)C(OCc1ccccc1)(C(=O)Cl)C(C)C (centres undefined),survivor count,[1],0 of 6
same,survivor count,[2],0 of 6
CO[C@H]1C[C@H](O[C@H]2CC[C@]3(C=O)[C@H]4CC[C@]5(C)[C@@H](C6=CC(=O)OC6)CC[C@]5(O)[C@@H]4CC[C@]3(O)C2)O[C@H](C)[C@H]1O,survivor count,"dose: 10.0 mg/kg/injection, schedule: Q01DX010 (ip), vehicle: steroid suspending solution",3 of 6
same,survivor count,"dose: 20.0 mg/kg/injection, schedule: Q01DX010 (ip), vehicle: steroid suspending solution",0 of 6
C/C(CCCCl)=N/N=C(N)N,survivor count,"dose: 28.12 mg/kg/injection, schedule: Q01DX001 (ip), vehicle: saline",6 of 6
same,T/C,"dose: 75.0 mg/kg/injection, schedule: Q04DX003 (ip), vehicle: saline",136 % of control
same,survivor count,"dose: 110.0 mg/kg/injection, schedule: Q01DX009 (ip), vehicle: saline",2 of 6
same,survivor count,"dose: 110.0 mg/kg/injection, schedule: Q04DX003 (ip), vehicle: saline",2 of 6
same,survivor count,"dose: 170.0 mg/kg/injection, schedule: Q01DX009 (ip), vehicle: saline",0 of 6
same,survivor count,"dose: 255.0 mg/kg/injection, schedule: Q01DX009 (ip), vehicle: saline",0 of 6
CN1CCC(OC(N)=O)CC1,T/C,"dose: 200.0 mg/kg/injection, schedule: Q01DX009 (ip), vehicle: saline",127 % of control
CS(=O)(=O)N(CC(=O)O)Cc1ccc(Cl)c(Cl)c1,T/C,"dose: 100.0 mg/kg/injection, schedule: Q04DX003 (ip), vehicle: other",126 % of control
C=CCSc1nc2ccccc2c(=O)n1-c1cc(OC)c(Cl)cc1OC,survivor count,"dose: 200.0 mg/kg/injection, schedule: Q01DX009 (ip), vehicle: Klucel (hydroxypropylcellulose) (HPC)",6 of 6
[Cu+2].[NH-]C1C(Cl)CCC2C(Cl)CC[N-]C12 (centres undefined),survivor count,"dose: 100.0 mg/kg/injection, schedule: Q01DX001 (ip), vehicle: Klucel (hydroxypropylcellulose) (HPC)",0 of 6
same,survivor count,"dose: 200.0 mg/kg/injection, schedule: Q01DX001 (ip), vehicle: Klucel (hydroxypropylcellulose) (HPC)",0 of 6
same,survivor count,"dose: 400.0 mg/kg/injection, schedule: Q01DX001 (ip), vehicle: Klucel (hydroxypropylcellulose) (HPC)",0 of 6
Cc1ccc(C(=O)N(O)c2ccccc2)cc1,survivor count,"dose: 400.0 mg/kg/injection, schedule: Q01DX009 (ip), vehicle: saline with Tween-80",5 of 6
C=C(C)C(=O)OC1CC2=CC(CC3(C)OC3C3OC(=O)C(=C)C13)OC2=O (centres undefined),T/C,"dose: 9.0 mg/kg/injection, schedule: Q01DX009 (ip), vehicle: Klucel (hydroxypropylcellulose) (HPC)",126 % of control
Oc1cccnc1CN1CCCCC1,survivor count,[3],2 of 6
same,survivor count,"dose: 100.0 mg/kg/injection, schedule: Q01DX009 (ip), vehicle: saline",4 of 6
COc1cc2cc(c1Cl)N(C)C(=O)C[C@H](OC(=O)CBr)[C@]1(C)O[C@@H]1[C@H](C)[C@@H]1C[C@@](O)(NC(=O)O1)[C@H](OC)C=C/C=C(\C)C2,T/C,"dose: 0.9 micrograms/kg/injection, schedule: Q01DX009 (ip), vehicle: saline + alcohol",129 % of control
same,T/C,"dose: 1.8 micrograms/kg/injection, schedule: Q01DX009 (ip), vehicle: saline + alcohol",131 % of control
same,T/C,"dose: 3.1 micrograms/kg/injection, schedule: Q01DX009 (ip), vehicle: saline + alcohol",130 % of control
same,T/C,"dose: 6.2 micrograms/kg/injection, schedule: Q01DX009 (ip), vehicle: saline + alcohol",146 % of control
same,survivor count,"dose: 200.0 micrograms/kg/injection, schedule: Q01DX009 (ip), vehicle: saline + alcohol",4 of 4
COc1ccc2c(C#N)cc3c4ccccc4ncc3c2c1,survivor count,"dose: 200.0 mg/kg/injection, schedule: Q01DX009 (ip), vehicle: distilled water + Tween-80",3 of 6
CC[C@H](CC[C@@H](C)[C@H]1CC[C@H]2[C@@H]3CC[C@H]4C[C@@H](O)CC[C@]4(C)[C@H]3CC[C@]12C)C(C)C,survivor count,[1],5 of 6
same,survivor count,"dose: 200.0 mg/kg/injection, schedule: Q04DX003 (ip), vehicle: saline with Tween-80",6 of 6
CCCN(CCC)CCSC(=S)NCCOC,survivor count,[2],3 of 6
ClC1=C(Cl)C2(Cl)C(Br)C(Br)C1(Cl)C2(Cl)Cl (centres undefined),survivor count,"dose: 100.0 mg/kg/injection, schedule: Q04DX003 (ip), vehicle: Klucel (hydroxypropylcellulose) (HPC)",6 of 6
same,survivor count,"dose: 200.0 mg/kg/injection, schedule: Q04DX003 (ip), vehicle: other",6 of 6
same,survivor count,"dose: 400.0 mg/kg/injection, schedule: Q04DX003 (ip), vehicle: Klucel (hydroxypropylcellulose) (HPC)",6 of 6
COc1cc(O)c(Cc2ccccc2O)c(O)c1C(=O)CCc1ccccc1,T/C,"dose: 1.0 mg/kg/injection, schedule: Q01DX009 (ip), vehicle: alcohol",130 % of control
NC(CSC(c1ccccc1)(c1ccccc1)c1ccc(Cl)cc1)C(=O)O (centres undefined),survivor count,[1],6 of 6
same,survivor count,[2],5 of 6
CCOCN(COCC)C(C)Cc1ccccc1 (centres undefined),T/C,"dose: 50.0 mg/kg/injection, schedule: Q01DX009 (ip), vehicle: saline with Tween-80",139 % of control
same,T/C,[1],148 % of control
same,survivor count,[2],4 of 6
CC(CCl)N(CCCl)Cc1cccc(Nc2ncnc3nc[nH]c23)c1 (centres undefined),T/C,"dose: 0.37 mg/kg/injection, schedule: Q01DX009 (ip), vehicle: saline",136 % of control
same,T/C,"dose: 0.44 mg/kg/injection, schedule: Q04DX003 (ip), vehicle: saline",136 % of control
same,T/C,"dose: 0.66 mg/kg/injection, schedule: Q04DX003 (ip), vehicle: saline",136 % of control
same,T/C,"dose: 0.75 mg/kg/injection, schedule: Q01DX009 (ip), vehicle: saline",136 % of control
same,T/C,"dose: 1.0 mg/kg/injection, schedule: Q04DX003 (ip), vehicle: saline",145 % of control
same,T/C,"dose: 1.3 mg/kg/injection, schedule: Q01DX009 (ip), vehicle: saline",148 % of control
same,T/C,"dose: 1.5 mg/kg/injection, schedule: Q04DX003 (ip), vehicle: saline",140 % of control
same,survivor count,"dose: 20.0 mg/kg/injection, schedule: Q04DX003 (ip), vehicle: saline",2 of 6
same,survivor count,"dose: 40.0 mg/kg/injection, schedule: Q04DX003 (ip), vehicle: saline",0 of 6
COc1ccc(CC2c3cc(OC)c(OC)cc3CCN2C(=O)c2ccccc2)cc1OC (centres undefined),survivor count,"dose: 200.0 mg/kg/injection, schedule: Q01DX005 (ip), vehicle: saline with Tween-80",6 of 6
CCN(CC)C(N)=Nc1ccc(NC(=O)c2ccc(C(=O)Nc3ccc(N=C(N)N(CC)CC)cc3)cc2)cc1,T/C,"dose: 1.56 mg/kg/injection, schedule: Q01DX009 (ip), vehicle: saline",125 % of control
same,survivor count,[3],1 of 3
same,survivor count,"dose: 50.0 mg/kg/injection, schedule: Q01DX009 (ip), vehicle: saline",0 of 3
COc1ccc(O)c(CC(C)C)c1,T/C,"dose: 100.0 mg/kg/injection, schedule: Q01DX009 (ip), vehicle: alcohol",131 % of control
same,T/C,"dose: 200.0 mg/kg/injection, schedule: Q01DX009 (ip), vehicle: alcohol",127 % of control
same,survivor count,"dose: 400.0 mg/kg/injection, schedule: Q01DX009 (ip), vehicle: alcohol",4 of 6
